According to patent US20060292074A1 (SCHERING AKTIENGESELLSCHAFT, published 2006):
Results are given in words; binding and its absence hold for the method and conditions named. Some binding calls cover weakened binding; strength is not graded here. For part of these data: Sequences can lack the tags named with a protein. One block for each binder: values may come before it.

Tests used:
[1] = target: T1, native tomoregulin (TR) on TR-expressing cells (PC3-TR, CHO-TR) (human) (UniProt Q9UIK5); assay: immunofluorescence, confocal microscopy on TR-positive cells
T1 sequence (looked up): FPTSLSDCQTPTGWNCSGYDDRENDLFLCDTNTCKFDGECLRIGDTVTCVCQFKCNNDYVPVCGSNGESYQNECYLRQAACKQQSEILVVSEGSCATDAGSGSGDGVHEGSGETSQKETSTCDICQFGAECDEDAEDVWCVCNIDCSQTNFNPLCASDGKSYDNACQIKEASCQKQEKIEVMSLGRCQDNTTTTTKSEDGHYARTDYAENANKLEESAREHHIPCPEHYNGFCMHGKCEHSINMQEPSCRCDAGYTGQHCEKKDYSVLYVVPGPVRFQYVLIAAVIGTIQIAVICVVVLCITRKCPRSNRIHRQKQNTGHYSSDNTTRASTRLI

[2] = target: T2, recombinant TR protein (extracellular domain of TR, amino acids 1-302, C-terminal 6xHis tag) (human) (UniProt Q9UIK5); assay: direct ELISA on recombinant TR
T2 sequence (chain, glycosylated): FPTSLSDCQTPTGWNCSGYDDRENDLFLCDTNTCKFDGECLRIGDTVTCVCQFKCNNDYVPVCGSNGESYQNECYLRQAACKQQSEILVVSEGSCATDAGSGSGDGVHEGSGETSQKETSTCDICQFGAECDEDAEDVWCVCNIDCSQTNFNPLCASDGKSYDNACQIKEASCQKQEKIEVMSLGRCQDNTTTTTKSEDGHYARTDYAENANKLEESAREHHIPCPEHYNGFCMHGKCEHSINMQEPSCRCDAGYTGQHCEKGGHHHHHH

[3] = target: T1, native tomoregulin (TR) on TR-expressing cells (PC3-TR, CHO-TR) (human); assay: differential live cell ELISA on CHO-TR against CHOK1 cells, crude scFv supernatant, anti-Etag-HRP

binding [1]: binds
B1: AT-19 IgG (fully human IgG1 format of AT-19) (antibody, V domains shown)
VH: QVQLVQSGGGLVQPGGSLRLSCAASGFTFSNYAMSWVRQAPGKGLEWVSAISGNGGATYYADSMKGRFTISRDNSKNTLSLQLNSLRVEDTAVYYCAKSLIWGYDRGVDYWGQGTLVTVSA
VL: HVILTQPPSASGTPGQRVTISCSGGASNIGTNSVNWYQQLPGTAPKLLLYTNDHRPSGVPDRFSGKSGTSASLAISGLQAEDEGDYYCAAWDDTMNGHVVFGGGTKLTVLG
notes: also called fully human AT-19 IgG

binding [2]: binds | binding [3]: binds
B2: AT-19 scFv (monomeric, monovalent single-chain anti-TR antibody) (scFv)
scFv: QVQLVQSGGGLVQPGGSLRLSCAASGFTFSNYAMSWVRQAPGKGLEWVSAISGNGGATYYADSMKGRFTISRDNSKNTLSLQLNSLRVEDTAVYYCAKSLIWGYDRGVDYWGQGTLVTVSAGGGGSGGGGSGGGGSGAPHVILTQPPSASGTPGQRVTISCSGGASNIGTNSVNWYQQLPGTAPKLLLYTNDHRPSGVPDRFSGKSGTSASLAISGLQAEDEGDYYCAAWDDTMNGHVVFGGGTKLTVLG
notes: also called monovalent AT-19 scFv; monomeric AT-19 scFv; not shown: E-tag from the pZ603 (pCANTAB5E-based) vector
